Measurements reported in PubChem BioAssay AID1508597 (Cure First, 2020)

Assay: 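Survival screen with siRNA in ovarian cancer cells derived from patients, with or without rucaparib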 (primary screen)
Cell system: human ovarian carcinoma lines grown from tumours: OCI-P5x (papillary serous) and OCI-C5x (clear cell)
Reagent: siRNA pool against human genes, 1.25 pmol siRNA per well
Duration: 72 h or 96 h, depending on the cell culture
Challenge: rucaparib 20 µM (about IC30) or vehicle, present until read-out
Rucaparib or vehicle: Vehicle
Cell line: OCI-C5x (clear cell)
Detection: 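ATP luminescence measured at 72 or 96 h according to the culture, then normalised and expressed as percent viability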
Reading the numbers: viability, normalised: higher = more viable cells remaining
Call rule: 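a well counts as a hit if its normalised viability is under 80 percent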
Calls: active = viability under 80%; inactive = viability 80% or more
Shown is a random part of the about 2,100 reagents, under one of the conditions tested. 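Calls flag viability under 80% in either arm, not effects specific to rucaparib; the reference for percent is not stated.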 Entries without a mark were called inactive. Some reagents were tested in more than one well and are listed for each. Reagent sequences are not shown. Not stated in the record: the 100% reference.

DGKD (GeneID 8527), technical replicate 1 → viability, normalised (%): 63 (active)
DGKD (GeneID 8527), technical replicate 2 → viability, normalised (%): 56.3 (active)
DGKD (GeneID 8527), technical replicate 3 → viability, normalised (%): 89.6
HLTF (GeneID 6596), technical replicate 1 → viability, normalised (%): 37.6 (active)
HLTF (GeneID 6596), technical replicate 2 → viability, normalised (%): 34 (active)
HLTF (GeneID 6596), technical replicate 3 → viability, normalised (%): 61.6 (active)
PAN3 (GeneID 255967), technical replicate 1 → viability, normalised (%): 95.7
PAN3 (GeneID 255967), technical replicate 2 → viability, normalised (%): 58.3 (active)
PAN3 (GeneID 255967), technical replicate 3 → viability, normalised (%): 48 (active)
GALK1 (GeneID 2584), technical replicate 1 → viability, normalised (%): 50.6 (active)
GALK1 (GeneID 2584), technical replicate 2 → viability, normalised (%): 59.4 (active)
GALK1 (GeneID 2584), technical replicate 3 → viability, normalised (%): 56.7 (active)
TTBK2 (GeneID 146057), technical replicate 1 → viability, normalised (%): 49.4 (active)
TTBK2 (GeneID 146057), technical replicate 2 → viability, normalised (%): 59.5 (active)
TTBK2 (GeneID 146057), technical replicate 3 → viability, normalised (%): 55.1 (active)
SQLE (GeneID 6713), technical replicate 1 → viability, normalised (%): 63.6 (active)
SQLE (GeneID 6713), technical replicate 2 → viability, normalised (%): 57.5 (active)
SQLE (GeneID 6713), technical replicate 3 → viability, normalised (%): 42.1 (active)

Records listed so far whose gene name starts with G or g (3):
GALK1 (GeneID 2584), technical replicate 1 → viability, normalised (%): 50.6 (active)
GALK1 (GeneID 2584), technical replicate 2 → viability, normalised (%): 59.4 (active)
GALK1 (GeneID 2584), technical replicate 3 → viability, normalised (%): 56.7 (active)

Additional records:
CDC7 (GeneID 8317), technical replicate 1 → viability, normalised (%): 74.5 (active)
CDC7 (GeneID 8317), technical replicate 2 → viability, normalised (%): 63.5 (active)
CDC7 (GeneID 8317), technical replicate 3 → viability, normalised (%): 58.7 (active)
RBBP8 (GeneID 5932), technical replicate 1 → viability, normalised (%): 56.9 (active)
RBBP8 (GeneID 5932), technical replicate 1 → viability, normalised (%): 64.1 (active)
RBBP8 (GeneID 5932), technical replicate 2 → viability, normalised (%): 47 (active)
RBBP8 (GeneID 5932), technical replicate 2 → viability, normalised (%): 42.4 (active)
RBBP8 (GeneID 5932), technical replicate 3 → viability, normalised (%): 45 (active)
RBBP8 (GeneID 5932), technical replicate 3 → viability, normalised (%): 62.1 (active)
SUZ12 (GeneID 23512), technical replicate 1 → viability, normalised (%): 64 (active)
SUZ12 (GeneID 23512), technical replicate 2 → viability, normalised (%): 84.3
SUZ12 (GeneID 23512), technical replicate 3 → viability, normalised (%): 53.9 (active)
MTHFR (GeneID 4524), technical replicate 1 → viability, normalised (%): 42.4 (active)
MTHFR (GeneID 4524), technical replicate 2 → viability, normalised (%): 35.2 (active)
MTHFR (GeneID 4524), technical replicate 3 → viability, normalised (%): 54.1 (active)
